According to article PMC10869800:
No constants are given. Whether binding was seen depends on the method and setting. In cells and extracts the contact can be indirect. Some entries that bind do so weakly or less than the wild type. For some of these results: Where a sequence is shown, tags or fusion partners need not be part of it. Blank lines part the entries; values can stand above or below the molecule they belong to.

Sequences of proteins named here, by UniProt entry; tags and fusion partners are left off.
UniProt Q6PGQ7: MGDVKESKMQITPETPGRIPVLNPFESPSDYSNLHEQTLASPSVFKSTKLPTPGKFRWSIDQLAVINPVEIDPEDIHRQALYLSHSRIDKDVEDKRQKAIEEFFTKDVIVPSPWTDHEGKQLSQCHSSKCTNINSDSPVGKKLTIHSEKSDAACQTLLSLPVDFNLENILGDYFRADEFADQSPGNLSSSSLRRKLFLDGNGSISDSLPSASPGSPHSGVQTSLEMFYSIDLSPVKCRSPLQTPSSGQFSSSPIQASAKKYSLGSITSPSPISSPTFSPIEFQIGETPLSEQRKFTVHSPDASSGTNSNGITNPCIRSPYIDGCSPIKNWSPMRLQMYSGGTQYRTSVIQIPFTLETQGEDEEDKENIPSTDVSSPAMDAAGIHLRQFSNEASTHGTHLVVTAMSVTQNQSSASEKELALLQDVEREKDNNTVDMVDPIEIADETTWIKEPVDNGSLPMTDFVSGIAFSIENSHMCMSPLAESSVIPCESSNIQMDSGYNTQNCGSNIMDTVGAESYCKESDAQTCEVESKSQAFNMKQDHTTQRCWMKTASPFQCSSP

What was measured:
PLK1-myc Y445F = PLK1-myc Y445F (UniProt P53350); test: co-IP; overexpressed PLK1-myc WT or Y445F; RO3306 arrested G2 cells and nocodazole arrested M-phase cells; endogenous partners blotted in the eluates; 20 mM HEPES-KOH pH 7.9, 200 mM NaCl, 10% glycerol, 0.1% Triton X-100, 1 mM DTT, 4 °C
[1] = molecular target: Polo-like kinase 1 (PLK1), endogenous (human (endogenous in 293T)) (UniProt P53350); test: co-IP; Myc-tagged EYA1 or EYA3 and PLK1 in G2 arrested cells (Supplementary Fig. 1H); which partner was precipitated is not told

- binding (PLK1-myc Y445F): binds
Molecule: BORA, endogenous (from UniProt Q6PGQ7 1-559)

- binding [1]: binds
B1: Myc-tagged EYA1 (protein, UniProt Q99502 1-592)
chain: MEMQDLTSPHSRLSGSSESPSGPKLGNSHINSNSMTPNGTEVKTEPMSSSETASTTADGSLNNFSGSAIGSSSFSPRPTHQFSPPQIYPSNRPYPHILPTPSSQTMAAYGQTQFTTGMQQATAYATYPQPGQPYGISSYGALWAGIKTEGGLSQSQSPGQTGFLSYGTSFSTPQPGQAPYSYQMQGSSFTTSSGIYTGNNSLTNSSGFNSSQQDYPSYPSFGQGQYAQYYNSSPYPAHYMTSSNTSPTTPSTNATYQLQEPPSGITSQAVTDPTAEYSTIHSPSTPIKDSDSDRLRRGSDGKSRGRGRRNNNPSPPPDSDLERVFIWDLDETIIVFHSLLTGSYANRYGRDPPTSVSLGLRMEEMIFNLADTHLFFNDLEECDQVHIDDVSSDDNGQDLSTYNFGTDGFPAAATSANLCLATGVRGGVDWMRKLAFRYRRVKEIYNTYKNNVGGLLGPAKREAWLQLRAEIEALTDSWLTLALKALSLIHSRTNCVNILVTTTQLIPALAKVLLYGLGIVFPIENIYSATKIGKESCFERIIQRFGRKVVYVVIGDGVEEEQGAKKHAMPFWRISSHSDLMALHHALELEYL

- binding [1]: no binding
B2: Myc-tagged EYA3 (protein, UniProt Q99504 1-573)
chain: MEEEQDLPEQPVKKAKMQESGEQTISQVSNPDVSDQKPETSSLASNLPMSEEIMTCTDYIPRSSNDYTSQMYSAKPYAHILSVPVSETAYPGQTQYQTLQQTQPYAVYPQATQTYGLPPFGALWPGMKPESGLIQTPSPSQHSVLTCTTGLTTSQPSPAHYSYPIQASSTNASLISTSSTIANIPAAAVASISNQDYPTYTILGQNQYQACYPSSSFGVTGQTNSDAESTTLAATTYQSEKPSVMAPAPAAQRLSSGDPSTSPSLSQTTPSKDTDDQSRKNMTSKNRGKRKADATSSQDSELERVFLWDLDETIIIFHSLLTGSYAQKYGKDPTVVIGSGLTMEEMIFEVADTHLFFNDLEECDQVHVEDVASDDNGQDLSNYSFSTDGFSGSGGSGSHGSSVGVQGGVDWMRKLAFRYRKVREIYDKHKSNVGGLLSPQRKEALQRLRAEIEVLTDSWLGTALKSLLLIQSRKNCVNVLITTTQLVPALAKVLLYGLGEIFPIENIYSATKIGKESCFERIVSRFGKKVTYVVIGDGRDEEIAAKQHNMPFWRITNHGDLVSLHQALELDFL

- binding (PLK1-myc Y445F): binds
B3: Aurora kinase A (AURKA), endogenous (protein, UniProt O14965 1-403)
chain: MDRSKENCISGPVKATAPVGGPKRVLVTQQFPCQNPLPVNSGQAQRVLCPSNSSQRIPLQAQKLVSSHKPVQNQKQKQLQATSVPHPVSRPLNNTQKSKQPLPSAPENNPEEELASKQKNEESKKRQWALEDFEIGRPLGKGKFGNVYLAREKQSKFILALKVLFKAQLEKAGVEHQLRREVEIQSHLRHPNILRLYGYFHDATRVYLILEYAPLGTVYRELQKLSKFDEQRTATYITELANALSYCHSKRVIHRDIKPENLLLGSAGELKIADFGWSVHAPSSRRTTLCGTLDYLPPEMIEGRMHDEKVDLWSLGVLCYEFLVGKPPFEANTYQETYKRISRVEFTFPDFVTEGARDLISRLLKHNPSQRPMLREVLEHPWITANSSKPSNCQNKESASKQS
